Source: PubChem BioAssay AID493014 (National Center for Advancing Translational Sciences (NCATS), 2011)
The other results are listed elsewhere or left out. Shown are side measurements of this screen, not its main read-out; they come without a call. The list favours compounds with an active or inconclusive main result. Potencies come from curve fits of mixed quality, noted in brackets.

Experiment: qHTS Assay to Find Inhibitors of Chronic Active B-Cell Receptor Signaling
Details: ABC-DLBCL IkBa-CBG/CBR reporter, luminescence ratio (green luciferase fused to IkBa over red control in TMD8 lymphoma cells), 4 h
How it was run: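 Concentration-response series (up to 46 uM) were applied to TMD8 dual-reporter cells for 4 h at 37C with doxycycline. Green/red ratio, after filter-overlap correction, defined %Activity; red signal alone was normalised to basal cells and zero luminescence.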

[1] = measured here: CBR red luminescence, cell number
[2] = measured here: IkBa-CBG green luminescence

Structure (SMILES)	AC50 [1]	AC50 [2]
CCOc1cc(CNc2cccc3[nH]c(C)nc23)ccc1OC	12.6 µM [rising, single point]	–
Cc1nc2ccc(NC(=O)CS(=O)(=O)c3ccccc3)cc2s1	9.2 µM [falling, partial curve]	–
O=C(O)CCC(=O)c1c[nH]c2ccccc12	0.58 µM [rising, full curve, poor fit]	–
CC(Sc1cccc[n+]1[O-])C(=O)Nc1cc(Cl)c(Cl)cc1Cl (configuration not stated)	2.06 µM [rising, full curve]	–
O=C(N/N=C/c1c[nH]c2ccccc12)c1[nH]c2ccc(Br)cc2c1-c1ccccc1	2.06 µM [rising, full curve]	–
Nc1nc(Nc2ccccc2F)sc1C(=O)c1ccccc1	2.82 µM [falling, partial curve, poor fit]	–
Cc1ccc2[nH]c(-c3ccccc3)cc(=O)c2c1	–	5.01 µM [falling, full curve]
CCn1c(=NC(=O)C2COc3ccccc3O2)sc2c(OC)ccc(OC)c21 (configuration not stated)	35.5 µM [rising, single point]	–
COC(=O)C1=C(C)NC2=C(C(=O)CCC2)C1c1cn(Cc2ccc(Br)cc2)nc1-c1ccccc1 (configuration not stated)	35.5 µM [falling, single point]	–
CC(/C=C/c1ccccc1)=N/NC(=O)c1nc2nc(C)cc(C)n2n1	35.5 µM [rising, single point]	–
CC(=O)c1ccc(-c2ccc(C(=O)N3CCCc4ccccc43)o2)cc1	20 µM [falling, single point]	–
COc1ccccc1/C=C/C(=O)OCCN1CCOCC1	17.8 µM [falling, partial curve]	–
CCCCCn1c(=N)c(S(=O)(=O)c2ccc(Br)cc2)cc2c(=O)n3cccc(C)c3nc21	11.2 µM [rising, single point]	–
O=C(CNc1cccc2ccccc12)c1ccc([N+](=O)[O-])cc1	2.91 µM [falling, full curve, poor fit]	–
O=[n+]1cc(-c2ccc(F)cc2)n([O-])c2c1CCC2	3.26 µM [rising, partial curve, poor fit]	–
CCc1nnc(NC(=O)CS(=O)(=O)Cc2ccccc2)s1	31.6 µM [rising, single point]	–
CCCCNC(=O)CSc1nc2cc3c(cc2c(=O)n1Cc1ccco1)OCO3	5.62 µM [falling, single point]	–
COCCCNC(=O)C(=O)NC1CCCCCC1	23.1 µM [falling, single point]	–
COc1ccc(CNC(=O)c2ccc3c(c2)N(Cc2ccccc2C)C(=O)c2ccccc2S3=O)cc1 (configuration not stated)	0.0891 µM [rising, full curve, poor fit]	–
Cc1c(C(=O)Nc2ccc(Cl)cc2)c2ccccn2c1CCc1ccncc1	0.517 µM [rising, full curve]	–
Cc1c(C(=O)OCC2CCCO2)[nH]c2c1C(=O)CC(c1ccco1)C2 (configuration not stated)	22.4 µM [rising, single point]	–

3 compounds already listed, sorted by SMILES length, rising.
Structure (SMILES)	AC50 [1]	AC50 [2]
Cc1nc2ccc(NC(=O)CS(=O)(=O)c3ccccc3)cc2s1	9.2 µM [falling, partial curve]	–
Cc1c(C(=O)Nc2ccc(Cl)cc2)c2ccccn2c1CCc1ccncc1	0.517 µM [rising, full curve]	–
COC(=O)C1=C(C)NC2=C(C(=O)CCC2)C1c1cn(Cc2ccc(Br)cc2)nc1-c1ccccc1 (configuration not stated)	35.5 µM [falling, single point]	–

Continuation.

Structure (SMILES)	AC50 [1]	AC50 [2]
O=C(OCCCc1ccncc1)c1ccc(S(=O)(=O)N2CCOCC2)cc1	35.5 µM [rising, single point]	–
CCN1CCN(CCNC(=O)Nc2ccc([N+](=O)[O-])cc2)CC1	17.8 µM [rising, single point]	–
CCS(=O)(=O)c1ccc(OC)c(N=Nc2ccc(O)c3ncccc23)c1	2.82 µM [rising, full curve, poor fit]	–
CC(C)(C)OC(=O)Nc1ccc([C@H](NC(=O)OC(C)(C)C)C(=O)OC(C)(C)C)cc1	29.1 µM [rising, single point]	–
CC(C)c1ccc(Oc2cccc(C(=O)/C(C#N)=C/N(C)C)c2)cc1	2.31 µM [falling, partial curve, poor fit]	–
COC(OC)c1ccnc(SCc2ccccc2Cl)n1	7.94 µM [rising, partial curve, poor fit]	–
O=C(O)CN1C(=O)/C(=C\c2ccc(OC(=O)c3ccco3)cc2)SC1=S	11.2 µM [rising, partial curve, poor fit]	–
Cc1cc(C)nc(N/N=C/C=C/c2ccccc2)n1	18.4 µM [falling, single point]	–
CCOC(=O)c1c(C)oc2c1c(C(c1ccncc1)N1CCOCC1)c(O)c1ccccc12 (configuration not stated)	4.11 µM [rising, partial curve, poor fit]	–
O=C1CN(C(=O)CSc2nc(-c3ccccc3)cs2)c2ccccc2N1	1.84 µM [rising, partial curve, poor fit]	–
CCN1CCCC1Cn1cnc2c([nH]c3cccc(Cl)c32)c1=O (configuration not stated)	4.47 µM [rising, partial curve, poor fit]	–
O=S(=O)(O)c1cccc2c(N=Nc3ccc(O)c4ncccc34)cccc12	20 µM [rising, single point]	–
CC(Oc1ccc(S(=O)(=O)N2CCCC2)cc1[N+](=O)[O-])C(=O)NC(C)c1ccccc1 (configuration not stated)	20.6 µM [falling, single point]	–
Cc1cc(C(=O)CN2CCN(CC(=O)Nc3ccc(F)cc3)CC2)c(C)n1C1CC1	5.8 µM [falling, partial curve, poor fit]	–
O=C(Nc1ccc2nc3ccccc3nc2c1)c1ccccc1	7.31 µM [falling, partial curve, poor fit]	–
O=C1ON=C(c2ccccc2)/C1=C/c1ccc(-c2ccccc2[N+](=O)[O-])o1	18.4 µM [falling, single point]	–
CCN(CC(=O)Nc1cccc(OC)c1)C(=O)c1ccco1	28.2 µM [rising, single point]	–
Cc1ccccc1OCC(=O)Nc1ccc2c(c1)OCCO2	3.16 µM [falling, single point]	–
CC(C)c1cc(NC(=O)c2ccccc2)cc(C(C)C)c1O	7.94 µM [falling, partial curve, poor fit]	–
N#CC1=C(N)N2C(=C(C#N)C13CCCCC3)SC1CCCCC12O (configuration not stated)	6.51 µM [falling, single point]	3.26 µM [rising, partial curve, poor fit]
